Experimental data published in article PMC7192513.
Results are given in words; binding and its absence hold for the method and conditions named. In cells and extracts the contact can be indirect. A yes stands for co-enrichment or nearness to the bait. Other partners may have been found.

B1: Pyruvate kinase 2 (protein, UniProt Q8IJ37 1-745)
chain: MNLIHICLFIIVIKCYVNCIKKNNKHIAYDKFYKQGSNTIVGSGNGSGDLLFLNNININKNVERKKNILAHSEIGTVRNIDDINLLNHNKKNEISFTKCKQIATIGPASENFEQLEKLYLNGIDVFRLNFSHGLKSIKKYIINSIRILEKKYDTTIGILGDIQGPKIRIGEFEKNQINENDNNTFVELKEGDLFSFDLMNSLGNQNRVQLNYPELIKNAKAGQIILLDDGNLKMKILENNYDTSNIQNSYIKVQVLTGGKLYSKKGFCIPNMIMPIDVLSEKDIKDILFCINEEVDFLGYSFVQTEYDLIFLRNIINDYYESDFYNNIKRKDRINFDQNNLQMKTFDDENDFYIKEVNDYYNNYYLKNVQKYKQIYDVYKNQDLYINDNIQNHYNKNIVTNIGDDKNIIDEQHIHNNNNNNIDNIMKNYSNLYNINKDHNKIAIISKIEKPSAIKNIENIIKLSDGIMIARGDLGIETNLSNLPILQKKLINLCRIKYNKPVIVATQMMESMRFLPSPTRAEVTDVATALYDGSDCVMLSAETATGQYPILTVSTQNKIIKDVENDYYYYEYTQRKNDKLKMLDHKNNCCHENKDIQQINKYNHEYIQNNKYEQDIQNNISYFDKLIFSIRDISNNINLKSIILFSNEFNKIQKLSNLRTKAPIIVITENKYLARKLQLTWGIYPHLSKKQNLFNHDLFSLINYGCDVSKKEGFVNSPDEYSLVTFSKNINSANLLYLCQPCLTN
B2: Ornithine aminotransferase (protein, UniProt Q6LFH8 1-414)
chain: MDFVKELKSSQDYMNNELTYGAHNYDPIPVVLKRGKGVFVYDIEDRRYYDFLSAYSSVNQGHCHPDILNAMINQAKKLTICSRAFFSDSLGVCERYLTNLFGYDKVLMMNTGAEASETAYKLCRKWGYEVKKIPENSAKIIVCNNNFSGRTLGCVSASTDKKCKNNFGPFVPNFLKVPYDDLEALEKELQDPNVCAFIVEPVQGEAGVIVPSDSYFPGVASLCKKYNVLFVADEVQTGLGRTGKLLCTHHYGVKPDVILLGKALSGGHYPISAILANDDVMLVLKPGEHGSTYGGNPLAAAICVEALKVLINEKLCENADKLGAPFLQNLKEQLKDSKVVREVRGKGLLCAIEFKNDLVNVWDICLKFKENGLITRSVHDKTVRLTPPLCITKEQLDECTEIIVKTVKFFDDNL
B3: Thioredoxin peroxidase 2 (protein, UniProt Q8I5Q6 20-216)
chain: SLVTKKAYNFTAQGLNKNNEIINVDLSSFIGQKYCCLLFYPLNYTFVCPTEIIEFNKHIKDFENKNVELLGISVDSVYSHLAWKNMPIEKGGIGNVEFTLVSDINKDISKNYNVLYDNSFALRGLFIIDKNGCVRHQTVNDLPIGRNVQEVLRTIDSIIHVDTSGEVCPINWKKGQKAFKPTTESLIDYMNNANKNV
B4: Receptor for activated c kinase (protein, UniProt Q8IBA0 1-323)
chain: MMDNIKEAEISLRGVLEGGHSDWVTSVSTPTDPKLKTIVSASRDKKLIVWNINTDDDSGEIGTAKKSLTGHSQAINDVSISSDGLFALSGSWDHSVRLWDLSLGETIRSFIGHTSDVFSVSFSPDNRQIVSASRDKTIKLWNTLAQCKYTITDQQHTDWITCVRFSPSPNQAIIVSCGWDKLVKVWNLKNCDLNKNLEGHTGVLNTVTISPDGSLCASGGKDGVAKLWDVKEGKHLYSLETGSTINSLCFSPCDYWLCAATDRFIRIWNLESKLIISEIYPVKQSKIGVPWCTSLTWSANGQLLYCGSTDGNIYVYEVKKHSV
B5: Hexokinase (protein, UniProt Q02155 1-493)
chain: MSEYDIAKNDVTYTKLDTIECDIPINEELSWRINKFVNQLRISYSTLEEFVDNFVYELKKGLEAHRKHPNLWIPHECSFKMLDSCIANIPTGQEKGTYYAIDFGGTNFRAVRASLDGKGKIKRDQETYSLKFTGSYSHEKGLLDKHATASQLFDHFAERIKYIMGEFNDLDNKEVKSVGFTFSFPCTSPSINCSILIDWTKGFETGRATNDPVEGRDVCKLMNDAFVRAAIPAKVCCVLNDAVGTLMSCAYQKGRGTPPCYIGIILGTGSNGCYYEPEWKKYKYAGKIINIEFGNFDKDLPTSPIDLVMDWYSANRSRQLFEKMISGAYLGEIVRRFMVNVLQSACSKKMWISDSFNSESGSVVLNDTSKNFEDSRKVAKAAWDMDFTDEQIYVLRKICEAVYNRSAALARGTIAAIAKRIKIIEHSKFTCGVDGSLFVKNAWYCKRLQEHLKVILADKAENLIIIPADDGSGKGAAITAAVIALNADIPQLP
B6: Inositol-3-phosphate synthase (protein, UniProt Q8I3Y8 1-604)
chain: METYKGIQFFSNKGTVKNAFKKSNLGYEVMLDRKEDENFIYSNYEHVETQVEKDSKGMVVCKKYKNTYEILVEKVKEKRLGVLLVGIGGNNATTMLGGICANAKDLSYMNKCDLKRSNYLGSVFLSSNIRLGYNEKDKEHAYAPIYKLIDIYNPENIVYGGWDINNMNLKDCLVRNKVFDNEVIEKIKDDLDYVPLKSVYFKGNFIAGNQQRRVNNILYGKNKLEILEQVREQIRNFKKQNNLNELIVLWSGNTEKNIPHIPGVNDTFLNILHACKKNHESVSPSVIYALAAILENSPFINSSPQNTLVSAVVQLAQQKGIFIIGNDLKTGQTKIKNFLLDFYFGTGLKPKSIVSYNHLGNNDGKNLSSDLQFYSKKVSKSNLICDYVRANENLYVDDEKDTNVLVKKSIDYCEGDSLNEKGKVSADIEDDCTYVESLEKQKVNSEIVIKYVPYVGDDKKAIDEYISEIFMNGKNTIVLYNICQDSMLASPILIDLILLVELSQRVFFKPNQEKKTNEDEHLLNENIQIEDYKLSHTILKPKYSSFKNLDSVLFLSSLFCKSPFNSTVYKTRHSFFSQLESLWNFVRIISGLPIDAHIDLPYMI
B7: Phosphoglycerate kinase (protein, UniProt P27362 1-416)
chain: MLGNKLSISDLKDIKNKKVLVRVDFNVPIENGIIKDTNRITATLPTINHLKKEGASKIILISHCGRPDGLRNEKYTLKPVAETLKGLLGEEVLFLNDCVGKEVEDKINAAKENSVILLENLRFHIEEEGKGVDANGNKVKANKEDVEKFQNDLTKLADVFINDAFGTAHRAHSSMVGVKLNVKASGFLMKKELEYFSKALENPQRPLLAILGGAKVSDKIQLIKNLLDKVDRMIIGGGMAYTFKKVLNNMKIGTSLFDEAGSKIVGEIMEKAKAKNVQIFLPVDFKIADNFDNNANTKFVTDEEGIPDNWMGLDAGPKSIENYKDVILTSKTVIWNGPQGVFEMPNFAKGSIECLNLVVEVTKKGAITIVGGGDTASLVEQQNKKNEISHVSTGGGASLELLEGKELPGVLALSNK
B8: Small GTP-binding protein Sar1 (protein, UniProt Q8I1S0 1-192)
chain: MFIINWFRDILAHLGLSQKSARILFLGLDNAGKTTLLHMLKDDRVAQHVPTLHPHSEELVVGKIRFKTFDLGGHETARRIWRDYFAAVDAVVFMIDTTDRSRFDEAREELRHLLETEELSNVPFVVLGNKIDKPDAASEDELRQHLNLFSNITVHNNMKGGSGVRPVELFMCSVIRRMGYAAAFKWISQFLT
B9: 60S acidic ribosomal protein P2 (protein, UniProt O00806 1-112)
chain: MAMKYVAAYLMCVLGGNENPSTKEVKNVLGAVNADVEDEVLNNFIDSLKGKSCHELITDGLKKLQNIGGGVAAAPAGAAAVETAEAKKEDKKEEKKEEEEEEEDDLGFSLFG
B10: Proliferating cell nuclear antigen 1 (protein, UniProt P61074 1-274)
chain: MLEAKLNNASILKKLFECIKDLVNDANVDADESGLKLQALDGNHVSLVSLHLLDSGFSHYRCDRERVLGVNIASLNKVFKLCGANESVVISSKDDEDNLNFVFENNKEDKVTNFSLKLMSIELDSLNIPDCEEGFDAEVELSSKELTNIFRNLSEFSDTVFIEIDSNCIKFTTKGIVGDAEVALKPRDSTSEDDIGVTIKSKKKIKQSFAIKYLNLFSKSNILADVVVLGLSDSRPIEFKYEIKDTSPDSDTLKIGFVKFFLAPKMDDDMDNKD
B11: Peptidyl-prolyl cis-trans isomerase FKBP35 (protein, UniProt Q8I4V8 1-304)
chain: MTTEQEFEKVELTADGGVIKTILKKGDEGEENIPKKGNEVTVHYVGKLESTGKVFDSSFDRNVPFKFHLEQGEVIKGWDICVSSMRKNEKCLVRIESMYGYGDEGCGESIPGNSVLLFEIELLSFREAKKSIYDYTDEEKVQSAFDIKEEGNEFFKKNEINEAIVKYKEALDFFIHTEEWDDQILLDKKKNIEISCNLNLATCYNKNKDYPKAIDHASKVLKIDKNNVKALYKLGVANMYFGFLEEAKENLYKAASLNPNNLDIRNSYELCVNKLKEARKKDKLTFGGMFDKGPLYEEKKNSAN
B12: Fructose-bisphosphate aldolase (protein, UniProt Q7KQL9 1-369)
chain: MAHCTEYMNAPKKLPADVAEELATTAQKLVQAGKGILAADESTQTIKKRFDNIKLENTIENRASYRDLLFGTKGLGKFISGAILFEETLFQKNEAGVPMVNLLHNENIIPGIKVDKGLVNIPCTDEEKSTQGLDGLAERCKEYYKAGARFAKWRTVLVIDTAKGKPTDLSIHETAWGLARYASICQQNRLVPIVEPEILADGPHSIEVCAVVTQKVLSCVFKALQENGVLLEGALLKPNMVTAGYECTAKTTTQDVGFLTVRTLRRTVPPALPGVVFLSGGQSEEEASVNLNSINALGPHPWALTFSYGRALQASVLNTWQGKKENVAKAREVLLQRAEANSLATYGKYKGGAGGENAGASLYEKKYVY
B13: Rab6 (protein, UniProt Q26000 1-207)
chain: MDEFQNSGLNKYKLVFLGEQAVGKTSIITRFMYDTFDNNYQSTIGIDFLSKTLYLDEGPVRLQLWDTAGQERFRSLIPSYIRDSAAAIVVYDITNRQSFENTTKWIQDILNERGKDVIIALVGNKTDLGDLRKVTYEEGMQKAQEYNTMFHETSAKAGHNIKVLFKKTASKLPNLDNTNNNEANVVDIQLTNNSNKNDKNMLSKCLC

Biological target: T1, Kelch protein K13 (P. falciparum (endogenous in Cam3.II and CamWT parasites)) (UniProt Q8IDQ2)
T1 sequence: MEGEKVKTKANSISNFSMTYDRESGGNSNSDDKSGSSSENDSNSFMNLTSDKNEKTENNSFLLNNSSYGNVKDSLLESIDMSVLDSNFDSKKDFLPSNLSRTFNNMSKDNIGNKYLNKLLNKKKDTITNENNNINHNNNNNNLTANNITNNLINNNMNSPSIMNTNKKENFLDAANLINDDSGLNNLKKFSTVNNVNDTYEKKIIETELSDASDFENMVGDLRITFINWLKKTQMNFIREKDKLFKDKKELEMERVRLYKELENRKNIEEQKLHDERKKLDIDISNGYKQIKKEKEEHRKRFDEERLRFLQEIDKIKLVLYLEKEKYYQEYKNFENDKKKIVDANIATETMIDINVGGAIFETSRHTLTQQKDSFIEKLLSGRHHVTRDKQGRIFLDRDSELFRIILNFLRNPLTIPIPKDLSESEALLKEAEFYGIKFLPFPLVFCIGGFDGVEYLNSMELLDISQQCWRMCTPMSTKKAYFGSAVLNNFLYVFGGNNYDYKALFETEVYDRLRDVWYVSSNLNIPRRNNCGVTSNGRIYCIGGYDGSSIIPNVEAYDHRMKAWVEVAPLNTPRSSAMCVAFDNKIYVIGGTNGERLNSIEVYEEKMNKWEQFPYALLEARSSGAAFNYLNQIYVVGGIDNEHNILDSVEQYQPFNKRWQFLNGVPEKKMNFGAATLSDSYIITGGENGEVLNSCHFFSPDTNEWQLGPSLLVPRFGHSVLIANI
Assay: affinity purification with mass spectrometry; co-IP with a mix of the K13 mAbs E3 and D9 (2.5 ug each) coupled to Pierce Direct IP columns; 500 ug parasite lysate in Pierce IP Lysis Buffer; cultures enriched in 0-12 hpi rings of Cam3.II (K13 WT, C580Y, R539T) and CamWT (WT, C580Y); eluates by LC-MS/MS; 6 experiments, 13 test samples, 10 negative controls

Binder | binding
B1 | binds
B2 | binds
B3 | binds
B4 | binds
B5 | binds
B6 | binds
B7 | binds
B8 | binds
B9 | binds
B10 | binds
B11 | binds
B12 | binds
B13 | binds
